In publication PMC5897774, “Mitotic spindle association of TACC3 requires Aurora‐A‐dependent stabilization of a cryptic α‐helix” (The EMBO Journal, 2018) one finds binding data, which are given here for two molecules.

Assay [1] has as its target TACC3 (endogenous, WT HeLa) (human (endogenous in HeLa)) (UniProt Q9Y6A5). In words: proximity ligation; HeLa cells (synchronised by double‐thymidine block or WT, F525A clones) fixed with ice‐cold methanol; mouse Aurora‐A antibody with rabbit TACC3 or TPX2 antibody; Duolink kit.
For assay [2], the target named is TACC3 519–563 (TACC3^N‐ACID) (human) (UniProt Q9Y6A5). The assay can be described thus: crystal structure; co-expressed Aurora‐A 122–403 D274N, C290A, C393A/TACC3 519–563 complex, 16.5 mg/ml, with 5 mM ADP/MgCl2; 0.1 M Bis–Tris pH 5.5, 2 M ammonium sulphate, 18°C; both purified.

These are yes or no findings as the source states them, for the method shown. For some assays here: Binding seen in cells or lysates may run through a third protein. Some entries that bind do so weakly or less than the wild type.

B1: Aurora‐A (endogenous, HeLa) (protein, UniProt O14965 1-403)
chain: MDRSKENCISGPVKATAPVGGPKRVLVTQQFPCQNPLPVNSGQAQRVLCPSNSSQRIPLQAQKLVSSHKPVQNQKQKQLQATSVPHPVSRPLNNTQKSKQPLPSAPENNPEEELASKQKNEESKKRQWALEDFEIGRPLGKGKFGNVYLAREKQSKFILALKVLFKAQLEKAGVEHQLRREVEIQSHLRHPNILRLYGYFHDATRVYLILEYAPLGTVYRELQKLSKFDEQRTATYITELANALSYCHSKRVIHRDIKPENLLLGSAGELKIADFGWSVHAPSSRRTTLCGTLDYLPPEMIEGRMHDEKVDLWSLGVLCYEFLVGKPPFEANTYQETYKRISRVEFTFPDFVTEGARDLISRLLKHNPSQRPMLREVLEHPWITANSSKPSNCQNKESASKQS
Turning to B1, the binding entry in assay [1] is “binds”.

B2: Aurora‐A 122–403 C290A, C393A, D274N mutant (Aurora‐A^M3KD) (domain or fragment, UniProt O14965 122-403)
chain: ESKKRQWALEDFEIGRPLGKGKFGNVYLAREKQSKFILALKVLFKAQLEKAGVEHQLRREVEIQSHLRHPNILRLYGYFHDATRVYLILEYAPLGTVYRELQKLSKFDEQRTATYITELANALSYCHSKRVIHRDIKPENLLLGSAGELKIANFGWSVHAPSSRRTTLAGTLDYLPPEMIEGRMHDEKVDLWSLGVLCYEFLVGKPPFEANTYQETYKRISRVEFTFPDFVTEGARDLISRLLKHNPSQRPMLREVLEHPWITANSSKPSNAQNKESASKQS
In the case of B2, in assay [2], the binding result was “binds”.
